Values joined by “and” are separate entries in the source; they are usually repeats but may differ in a detail not shown here. Identical values can stand only once. Screen size: about 360,000 compounds; about 7,500 (2.1%) were called active. Inconclusive results, whose numbers are uncertain, are shown with a selection of clear calls. The call rests on the fitted dose curve; in most records, active means well fitted inhibition curve with a large enough effect; inconclusive means small, poorly fitted or top-dose-only effect, or effect the other way; inactive means flat fitted curve, though single readings scatter. Potencies of inconclusive entries are doubtful fits and often do not repeat.
experiment: Nrf2 qHTS screen for inhibitors; conditions: A549 ARE-Fluc reporter, luciferase luminescence, 18-24 h; activity change, negative = inhibition: at 46 µM (top of the series); further: nearly all actives have a fitted effect of over 60% in size
Method in brief: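 Nrf2 function is reported as luminescence of an ARE-controlled luciferase in A549 cells. Compounds were tested at several concentrations, and a CellTiter-Fluor read on the same wells flagged cytotoxicity.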
On the % scale 0 is the no-effect control and ±100 the full control effect; potency means the concentration at half of the fitted maximal effect.

SMILES	Potency	activity change, negative = inhibition
CCOc1ccc(C(=O)Nc2cccc(NC(=O)c3ccco3)c2)cc1Cl	inconclusive: 32.6 µM [falling, single point]	–
OC(COc1ccc2ccccc2c1)CN1CCOCC1 (stereo not given)	inconclusive: 10.3 µM [activator, partial curve] and inconclusive: 14.6 µM [activator, partial curve, poor fit]	–
CCN(CC)S(=O)(=O)c1nnc(NC(=O)COc2ccccc2Cl)s1	inconclusive: 11.6 µM [activator, partial curve]	–
Nc1nonc1-n1nnc(C(=O)N/N=C/c2cccc(Cl)c2)c1CSc1ccccc1	inconclusive: 23.1 µM [falling, partial curve, poor fit]	–
CCOC(=O)c1cc2oc(C(c3nnnn3C3CCCCC3)N3CCOCC3)cc2[nH]1 (stereo not given)	inconclusive: 29.1 µM [falling, single point]	–
Cc1cccc(-n2c(SCC(=O)N3CC(=O)Nc4ccccc43)nc3ccccc3c2=O)c1C	active: 23.1 µM	–
CCN(C(=O)CSc1nc2nc(C)cc(C)n2n1)c1ccccc1	–	inactive: 7.8%
CCOC(=O)C1CCN(C(=O)c2ccc(S(=O)(=O)Nc3ccccc3OC)cc2)CC1	inconclusive: 5.8 µM [falling, partial curve, poor fit]	–
CC12CC3(C)CC(C)(C1)CC(NC(=O)N1CCCC1)(C2)C3	inconclusive: 10 µM [falling, partial curve]	–
O=C(COc1ccccc1F)OCc1cc(=O)n2nc(-c3cccs3)sc2n1	inconclusive: 6.51 µM [activator, partial curve, poor fit]	–
Cc1ccc(NC(=S)NC2CCSc3ccccc32)cc1 (stereo not given)	inconclusive: 29.1 µM [activator, single point]	–
C[C@H](CO)N1C[C@H](C)[C@@H](CN(C)C(=O)Nc2ccccc2)Oc2c(NC(=O)Nc3ccc(C(F)(F)F)cc3)cccc2C1=O	inconclusive: 29.1 µM [falling, single point]	–
Cc1cc(-c2ccc(S(=O)(=O)N(C)c3ccc(C)c(C)c3)s2)on1	–	inactive: -11.8%
CCC(C(=O)n1cccc1C#N)c1ccccc1C (stereo not given)	inconclusive: 18.4 µM [falling, partial curve, poor fit]	–
COc1ccccc1/C=C1\SC(N2CCC(C)CC2)=NC1=O	–	inactive: 15.3%
COC1OC(COC(=O)c2ccccc2)C(OC(=O)c2ccccc2)C1OC(=O)c1ccccc1 (stereo not given)	–	inactive: -19.6%
COc1cccc(C2CC(c3cccs3)=NN2C(=O)CSc2nc3ccccc3o2)c1OC (stereo not given)	–	inactive: -14.5%
COCCn1c(Br)nc2c1c(=O)n(C)c(=O)n2C	–	inactive: -8.05%
Cc1nc(N2CCN(c3ccccn3)CC2)c2c(C)c(C(=O)Nc3ccc(F)c(Cl)c3)sc2n1	active: 16.4 µM	–
COC(=O)C1=CC(C(=O)c2cccs2)=NN(c2ccc(OC)cc2)C1C(=O)OC (stereo not given)	–	inactive: 7.72%
CCCCC(=O)Nc1ccc(C(=O)Nc2cc(C(F)(F)F)ccc2Cl)cc1	inconclusive: 0.731 µM [falling, full curve, poor fit]	–
Cc1ccc(CNC(=O)Cn2nnc3ccccc3c2=O)cc1	inconclusive: 29.1 µM [activator, single point]	–

SMILES	Potency	activity change, negative = inhibition
COCCNC(=O)c1c[nH]c2ccc(S(=O)(=O)N3CCc4ccccc43)cc2c1=O	active: 16.4 µM	–
O=C(Nc1cccc(-c2csc(-c3ccccc3)n2)c1)c1cccs1	active: 16.4 µM	–
COc1ccc(N2CCN(C(=O)c3ccc(OCC4CCCO4)cc3)CC2)cc1 (stereo not given)	inconclusive: 20.6 µM [falling, partial curve, poor fit]	–
COC(=O)c1ccc(CNC(=O)CNC(=O)c2sc3ccccc3c2Cl)cc1	inconclusive: 23.1 µM [falling, partial curve]	–
CCN(c1ccccc1)S(=O)(=O)c1ccc(OC)c(NC(=O)CN(C)C)c1	–	inactive: -5.79%
Cn1cccc1C1CCCN1CC(=O)Nc1c(Cl)cc(Cl)cc1Cl (stereo not given)	inconclusive: 10.3 µM [activator, partial curve]	–
COc1cc(OC)c(Nc2cc(C)nc3ncnn23)cc1Cl	–	inactive: -1.89%
CC(C)N(C(=O)N1CCC(c2nc(-c3ccncc3)no2)CC1)C(C)C	inconclusive: 18.4 µM [falling, single point]	–
COc1ccc(C(OC(=O)c2ccco2)C(=O)NCc2ccc(C)cc2)cc1 (stereo not given)	–	inactive: 25.8%
Cc1cc(OCC(=O)NCCN2CCOCC2)c2c(C)c(C)c(=O)oc2c1	inconclusive: 5.8 µM [falling, partial curve, poor fit]	–
Cc1cccc(C(=O)NCC(=O)OC(C(=O)Nc2cc(C(F)(F)F)ccc2Cl)c2ccccc2)c1 (stereo not given)	–	inactive: 8.07%
CC(C)(C)C1(O)CC(C(F)(F)F)=NN1C(=O)Cc1ccc([N+](=O)[O-])cc1 (stereo not given)	inconclusive: 20.6 µM [falling, single point]	–
COc1cc(OC)cc(C(=O)NC(=S)Nc2ccc(NC(=O)c3ccco3)cc2)c1	–	inactive: 2.57%
COc1cccc(C2CCCCN(C)C2=O)c1 (stereo not given)	inconclusive: 32.6 µM [falling, single point]	–
Cc1cc(C)c(C)c(OCCn2ccnc2)c1	inconclusive: 32.6 µM [falling, single point]	–
COc1cccc(Nc2nc(-c3cccnc3)cs2)c1	inconclusive: 9.2 µM [activator, partial curve]	–
COc1ccc([C@H]2C(C(=O)O)=C[C@@H](CC3CCCC3)N2S(=O)(=O)c2ccc(C)cc2)cc1OC	inconclusive: 9.2 µM [falling, partial curve, poor fit]	–
COc1ccc(Cn2c(=O)[nH]c3cc(C(=O)N4CCN(c5cc(C)ccc5C)CC4)ccc3c2=O)cc1	–	inactive: -9.96% [at 9.27 µM]
Cc1ccc(C)c(N2CCN(CCCNC(=O)Cn3c(=O)c4cccn4c4cccnc43)CC2)c1	–	inactive: 1.55%
O=C(Nc1cccc(C(F)(F)F)c1)c1scc2c1OCCO2	inconclusive: 2.59 µM [activator, partial curve, poor fit]	–
N#CC1=C(N)N(c2ccc(Oc3ccccc3)cc2)C(=O)C1	inconclusive: 9.2 µM [falling, partial curve, poor fit]	–
COc1cc(/C=C(/C#N)c2nc3ccccc3[nH]2)ccc1OC(=O)c1ccco1	inconclusive: 29.1 µM [activator, single point]	–

SMILES	Potency	activity change, negative = inhibition
NC(=O)c1cc(S(=O)(=O)N2CCN(c3ccc(F)cc3)CC2)cs1	inconclusive: 9.2 µM [falling, partial curve]	–
O=c1oc2ccccc2c(NCc2ccccc2F)c1[N+](=O)[O-]	inconclusive: 29.1 µM [falling, single point]	–
Cc1ccccc1CNC(=O)C1CCN(c2nn3cc(-c4ccc(F)cc4)nc3s2)CC1	inconclusive: 29.1 µM [activator, single point]	–
Cn1c(=O)oc2cc(S(=O)(=O)NCCC(=O)N3CCN(c4ccccc4)CC3)ccc21	inconclusive: 7.31 µM [falling, partial curve, poor fit]	–
O=C(O)c1cccc2c1C(=O)c1ccc(-c3ccc(F)cc3OCc3ccccc3)cc1S2(=O)=O	inconclusive: 25.9 µM [activator, single point]	–
CC1CCCCN1CCCNC(=O)Cn1ncc2c([nH]c3ccccc32)c1=O (stereo not given)	inconclusive: 3.26 µM [activator, partial curve, poor fit]	–
CCCCn1c(O)c(N=NC(=O)c2ccncc2)c2cc(Br)ccc21	inconclusive: 29.1 µM [falling, single point]	–
O=C(COc1ccc(S(=O)(=O)N2CCOCC2)cc1)Nc1ccc(Br)cc1	inconclusive: 16.4 µM [falling, single point]	–
O=C(Cc1ccccc1)Nc1ccc(F)cc1	inconclusive: 23.1 µM [activator, single point]	–
NC(=O)C1(N2CCCCC2)CCN(C(=O)NC23CC4CC(CC(C4)C2)C3)CC1	inconclusive: 7.31 µM [falling, partial curve]	–
Cc1ccc(/C=C/C(=O)Nc2nc3ccccc3[nH]2)cc1	inconclusive: 5.8 µM [activator, single point]	–
CCOc1ccccc1N(CC)C(=O)c1nn(C)c2c1CSc1ccccc1-2	inconclusive: 23.1 µM [falling, single point]	–
CCCOc1ccc(-c2nn(-c3ccccc3)cc2C2NC(=O)NC(C)=C2C(=O)OC(C)C)cc1 (stereo not given)	inconclusive: 23.1 µM [falling, partial curve, poor fit]	–
Cc1ccccc1C(=O)Nc1ccccc1-n1cccc1	inconclusive: 29.1 µM [activator, single point]	–
O=S(=O)(NC1c2cccc3cccc(c23)C1N1CCN(CCO)CC1)c1ccccc1 (stereo not given)	inconclusive: 25.9 µM [falling, single point]	–
FC(F)(F)c1cccc(Cn2nnnc2-c2cccc(C(F)(F)F)c2)c1	inconclusive: 4.61 µM [falling, partial curve, poor fit]	–
Cc1ccc(NC(=O)Cn2c(=O)n(CCCCCC(=O)NCc3ccc(F)cc3)c(=O)c3sccc32)cc1C	–	inactive: -11.5%
O=C(O)c1cccc(CSc2nnc(-c3cccnc3)o2)c1	inconclusive: 29.1 µM [falling, single point]	–
O=C(CCNc1ccccc1)c1ccc2c(c1)OCO2	inconclusive: 16.4 µM [activator, partial curve]	–
Cc1ccc(S(=O)(=O)NCCSc2nnnn2-c2cc(C)ccc2C)cc1	inconclusive: 29.1 µM [falling, single point]	–
COc1ccc2c(c1)cc(C(=O)N[C@H](C(=O)N1CCC(C(=O)O)CC1)C(C)C)n2C	–	inactive: -12.5%

Source: PubChem BioAssay AID504444 (National Center for Advancing Translational Sciences (NCATS), 2011)
